{
  "sequences": {"note": "Amino acid sequences for entries named in this document (tags omitted).", "UniProt P14635": "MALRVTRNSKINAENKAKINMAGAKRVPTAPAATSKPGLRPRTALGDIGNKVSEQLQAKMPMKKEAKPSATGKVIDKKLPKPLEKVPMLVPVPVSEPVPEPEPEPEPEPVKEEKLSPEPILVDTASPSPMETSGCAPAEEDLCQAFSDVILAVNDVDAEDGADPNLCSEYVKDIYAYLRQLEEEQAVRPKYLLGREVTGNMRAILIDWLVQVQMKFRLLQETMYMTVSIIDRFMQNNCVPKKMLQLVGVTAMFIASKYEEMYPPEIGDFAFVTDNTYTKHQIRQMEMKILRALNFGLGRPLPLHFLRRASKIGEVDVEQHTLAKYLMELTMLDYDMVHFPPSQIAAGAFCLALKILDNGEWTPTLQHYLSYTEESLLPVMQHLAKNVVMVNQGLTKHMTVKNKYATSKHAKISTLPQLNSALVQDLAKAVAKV"},
  "source": "paper doi:10.1101/2024.08.01.605889",
  "molecular_target": "cyclin B1 (human (endogenous in NCI-H1048 and NCI-H446)) (UniProt P14635)",
  "experiment": "affinity purification with mass spectrometry",
  "note": "No constants are given. Whether binding was seen depends on the method and setting. In cells and extracts the contact can be indirect. Here binding means that the protein was enriched with, or labelled near, the bait; the list need not be complete.",
  "data": [
    {"binder": "Myt1 (enzyme, UniProt Q99640 1-499) MLERPPALAMPMPTEGTPPPLSGTPIPVPAYFRHAEPGFSLKRPRGLSRSLPPPPPAKGSIPISRLFPPRTPGWHQLQPRRVSFRGEASETLQSPGYDPSRPESFFQQSFQRLSRLGHGSYGEVFKVRSKEDGRLYAVKRSMSPFRGPKDRARKLAEVGSHEKVGQHPCCVRLEQAWEEGGILYLQTELCGPSLQQHCEAWGASLPEAQVWGYLRDTLLALAHLHSQGLVHLDVKPANIFLGPRGRCKLGDFGLLVELGTAGAGEVQEGDPRYMAPELLQGSYGTAADVFSLGLTILEVACNMELPHGGEGWQQLRQGYLPPEFTAGLSSELRSVLVMMLEPDPKLRATAEALLALPVLRQPRAWGVLWCMAAEALSRGWALWQALLALLCWLWHGLAHPASWLQPLGPPATPPGSPPCSLLLDSSLSSNWDDDSLGPSLSPEAVLARTVGSTSTPRSRCTPRDALDLSDINSEPPRGSFPSFEPRNLLSLFEDTLDPT", "values": [
      {"measurement": "binding", "value": "binds"}
    ]},
    {"binder": "p57^Kip2 (protein, UniProt P49918 1-316) MSDASLRSTSTMERLVARGTFPVLVRTSACRSLFGPVDHEELSRELQARLAELNAEDQNRWDYDFQQDMPLRGPGRLQWTEVDSDSVPAFYRETVQVGRCRLLLAPRPVAVAVAVSPPLEPAAESLDGLEEAPEQLPSVPVPAPASTPPPVPVLAPAPAPAPAPVAAPVAAPVAVAVLAPAPAPAPAPAPAPAPVAAPAPAPAPAPAPAPAPAPAPDAAPQESAEQGANQGQRGQEPLADQLHSGISGRPAAGTAAASANGAAIKKLSGPLISDFFAKRKRSAPEKSSGDVPAPCPSPSAAPGVGSVEQTPRKRLR", "values": [
      {"measurement": "binding", "value": "binds"}
    ]}
  ]
}
